Source: publication PMC4111604, “Structural Characterization of the Saccharomyces cerevisiae THO Complex by Small-Angle X-Ray Scattering” (PLoS ONE, 2014)
No constants are given. Whether binding was seen depends on the method and setting. For some of these results: Binding seen in cells or lysates may run through a third protein. Some binding calls cover weakened binding; strength is not graded here. Tags and fused reporters may be left off the sequences shown.

T1: Mft1pΔC336-392 with C-terminal Strep II tag (THO3) (Saccharomyces cerevisiae) (UniProt P33441)
T1 sequence: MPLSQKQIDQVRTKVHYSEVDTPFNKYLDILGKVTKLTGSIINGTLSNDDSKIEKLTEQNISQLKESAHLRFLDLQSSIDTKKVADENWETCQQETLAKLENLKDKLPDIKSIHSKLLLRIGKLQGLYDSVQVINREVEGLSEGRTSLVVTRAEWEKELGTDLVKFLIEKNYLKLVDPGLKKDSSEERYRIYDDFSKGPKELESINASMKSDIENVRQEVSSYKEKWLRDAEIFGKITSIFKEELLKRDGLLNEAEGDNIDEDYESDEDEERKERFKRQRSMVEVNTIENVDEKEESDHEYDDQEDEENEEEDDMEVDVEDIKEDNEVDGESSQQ

T2: Mft1pΔC270-392 with C-terminal Strep II tag (THO4) (Saccharomyces cerevisiae) (UniProt P33441)
T2 sequence: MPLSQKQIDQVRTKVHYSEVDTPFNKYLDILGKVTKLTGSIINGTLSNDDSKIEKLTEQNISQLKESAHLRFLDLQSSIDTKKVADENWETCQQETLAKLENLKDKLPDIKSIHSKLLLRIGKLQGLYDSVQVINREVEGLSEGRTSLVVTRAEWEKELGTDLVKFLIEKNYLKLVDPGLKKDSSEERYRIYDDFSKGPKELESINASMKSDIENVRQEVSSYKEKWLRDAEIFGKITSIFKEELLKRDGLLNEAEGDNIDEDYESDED

T3: Mft1pΔC232-392 (TEV-cleavable C-terminal 8xHis tag) (Saccharomyces cerevisiae) (UniProt P33441)
T3 sequence: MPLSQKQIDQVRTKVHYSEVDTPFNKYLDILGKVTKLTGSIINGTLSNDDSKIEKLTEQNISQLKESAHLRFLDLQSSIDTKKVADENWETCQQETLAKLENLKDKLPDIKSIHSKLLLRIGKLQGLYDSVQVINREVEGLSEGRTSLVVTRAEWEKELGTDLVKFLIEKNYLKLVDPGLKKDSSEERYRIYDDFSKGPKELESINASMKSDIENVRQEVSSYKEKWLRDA

T4: Mft1pΔC248-392 (TEV-cleavable C-terminal 8xHis tag) (Saccharomyces cerevisiae) (UniProt P33441)
T4 sequence: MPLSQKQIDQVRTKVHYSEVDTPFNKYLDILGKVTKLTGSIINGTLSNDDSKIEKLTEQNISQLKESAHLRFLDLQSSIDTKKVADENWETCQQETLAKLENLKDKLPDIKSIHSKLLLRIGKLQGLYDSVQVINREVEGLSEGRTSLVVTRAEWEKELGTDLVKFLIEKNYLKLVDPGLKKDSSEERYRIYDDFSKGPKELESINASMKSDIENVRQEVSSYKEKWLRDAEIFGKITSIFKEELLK


Tests used:
[1] = target: T1, Mft1pΔC336-392 with C-terminal Strep II tag (THO3) (Saccharomyces cerevisiae); experiment: pull-down; proteins co-expressed in E. coli Rosetta (DE3); clarified lysate on Ni-NTA magnetic agarose beads, then Strep-Tactin magnetic beads, eluates on Coomassie-stained SDS-PAGE, bands confirmed by mass spectrometry; small-scale and large-scale cultures; 4°C, 50 mM Tris-Cl pH 8.0, 300 mM KCl (wash 1 M KCl)
[2] = target: T2, Mft1pΔC270-392 with C-terminal Strep II tag (THO4) (Saccharomyces cerevisiae); experiment: as above
[3] = target: T1, Mft1pΔC336-392 with C-terminal Strep II tag (THO3) (Saccharomyces cerevisiae); experiment: SAXS; purified proteins or co-expressed, co-purified complexes in solution; 50 mM Tris-Cl pH 8.0, 100 mM KCl, 5 mM MgCl2, 5 mM 2-mercaptoethanol; 10°C or 25°C; 3-6 concentrations between 7.8 and 0.15 mg/ml; homodimers told from measurements at low concentrations; both purified
[4] = target: T1, Mft1pΔC336-392 with C-terminal Strep II tag (THO3) (Saccharomyces cerevisiae); experiment: SEC; co-expressed complexes purified by Strep-Tactin, Source 15Q anion exchange and Superdex 200 gel filtration (successive rounds to separate ternary from binary); 50 mM Tris-Cl pH 8.0, 100 mM KCl, 5 mM MgCl2, 5 mM 2-mercaptoethanol; densitometry of SDS-PAGE: equal stoichiometric amounts (data not shown); both purified
[5] = target: T2, Mft1pΔC270-392 with C-terminal Strep II tag (THO4) (Saccharomyces cerevisiae); experiment: as above
[6] = target: T1, Mft1pΔC336-392 with C-terminal Strep II tag (THO3) (Saccharomyces cerevisiae); experiment: SEC-MALS; static light scattering (Zetasizer µV) inline with Superdex 200 GL 10/300, on purified co-expressed complexes; both purified
[7] = target: T2, Mft1pΔC270-392 with C-terminal Strep II tag (THO4) (Saccharomyces cerevisiae); experiment: as above
[8] = target: T3, Mft1pΔC232-392 (TEV-cleavable C-terminal 8xHis tag) (Saccharomyces cerevisiae); experiment: SEC; co-expressed complexes purified by Ni-NTA (8xHis on Mft1p), TEV cleavage and second Ni-NTA, Source 15Q anion exchange and Superdex 200 gel filtration; Coomassie-stained SDS-PAGE; both purified
[9] = target: T4, Mft1pΔC248-392 (TEV-cleavable C-terminal 8xHis tag) (Saccharomyces cerevisiae); experiment: as above
[10] = target: T3, Mft1pΔC232-392 (TEV-cleavable C-terminal 8xHis tag) (Saccharomyces cerevisiae); experiment: SAXS; purified proteins or co-expressed, co-purified complexes in solution; 50 mM Tris-Cl pH 8.0, 100 mM KCl, 5 mM MgCl2, 5 mM 2-mercaptoethanol; 10°C or 25°C; 3-6 concentrations between 7.8 and 0.15 mg/ml; homodimers told from measurements at low concentrations; both purified

Row | binding [1] | binding [2] | binding [3] | binding [4] | binding [5] | binding [6] | binding [7] | binding [8] | binding [9] | binding [10] | Binder
1 | binds | binds | binds | binds | binds | binds | binds | – | – | – | Thp2p with N-terminal Strep II tag (THO3, THO4) (protein, UniProt O13539 1-261) MTKEEGRTYFESLCEEEQSLQESQTHLLNILDILSVLADPRSSDDLLTESLKKLPDLHRELINSSIRLRYDKYQTREAQLLEDTKTGRDVAAGVQNPKSISEYYSTFEHLNRDTLRYINLLKRLSVDLAKQVEVSDPSVTVYEMDKWVPSEKLQGILEQYCAPDTDIRGVDAQIKNYLDQIKMARAKFGLENKYSLKERLSTLTKELNHWRKEWDDIEMLMFGDDAHSMKKMIQKIDSLKSEINAPSESYPVDKEGDIVLE
2 | – | – | – | – | – | – | – | binds | binds | binds | Thp2p (bicistronic pETM-13 constructs with truncated Mft1p) (protein, UniProt O13539 1-261) MTKEEGRTYFESLCEEEQSLQESQTHLLNILDILSVLADPRSSDDLLTESLKKLPDLHRELINSSIRLRYDKYQTREAQLLEDTKTGRDVAAGVQNPKSISEYYSTFEHLNRDTLRYINLLKRLSVDLAKQVEVSDPSVTVYEMDKWVPSEKLQGILEQYCAPDTDIRGVDAQIKNYLDQIKMARAKFGLENKYSLKERLSTLTKELNHWRKEWDDIEMLMFGDDAHSMKKMIQKIDSLKSEINAPSESYPVDKEGDIVLE
3 | – | – | binds | binds | – | binds | – | – | – | – | Tho2pΔC1274-1597 with C-terminal Strep II tag (THO3) (domain or fragment, UniProt P53552 1-1273) MAEQTLLSKLNALSQKVIPPASPSQASILTEEVIRNWPERSKTLCSDFTALESNDEKEDWLRTLFIELFDFINKNDENSPLKLSDVASFTNELVNHERQVSQASIVGKMFIAVSSTVPNINDLTTISLCKLIPSLHEELFKFSWISSKLLNKEQTTLLRHLLKKSKYELKKYNLLVENSVGYGQLVALLILAYYDPDNFSKVSAYLKEIYHIMGKYSLDSIRTLDVILNVSSQFITEGYKFFIALLRKSDSWPSSHVANNSNYSSLNEGGNMIAANIISFNLSQYNEEVDKENYERYMDMCCILLKNGFVNFYSIWDNVKPEMEFLQEYIQNLETELEEESTKGVENPLAMAAALSTENETDEDNALVVNDDVNMKDKISEETNADIESKGKQKTQQDILLFGKIKLLERLLIHGCVIPVIHVLKQYPKVLYVSESLSRYLGRVFEYLLNPLYTSMTSSGESKDMATALMITRIDNGILAHKPRLIHKYKTHEPFESLELNSSYVFYYSEWNSNLTPFASVNDLFENSHIYLSIIGPYLGRIPTLLSKISRIGVADIQKNHGSESLHVTIDKWIDYVRKFIFPATSLLQNNPIATSEVYELMKFFPFEKRYFIYNEMMTKLSQDILPLKVSFNKAEREAKSILKALSIDTIAKESRRFAKLISTNPLASLVPAVKQIENYDKVSELVVYTTKYFNDFAYDVLQFVLLLRLTYNRPAVQFDGVNQAMWVQRLSIFIAGLAKNCPNMDISNIITYILKTLHNGNIIAVSILKELIITVGGIRDLNEVNMKQLLMLNSGSPLKQYARHLIYDFRDDNSVISSRLTSFFTDQSAISEIILLLYTLNLKANTQNSHYKILSTRCDEMNTLLWSFIELIKHCLKGKAFEENVLPFVELNNRFHLSTPWTFHIWRDYLDNQLNSNENFSIDELIEGAEFSDVDLTKISKDLFTTFWRLSLYDIHFDKSLYDERKNALSGENTGHMSNRKKHLIQNQIKDILVTGISHQRAFKKTSEFISEKSNVWNKDCGEDQIKIFLQNCVVPRVLFSPSDALFSSFFIFMAFRTENLMSILNTCITSNILKTLLFCCTSSEAGNLGLFFTDVLKKLEKMRLNGDFNDQASRKLYEWHSVITEQVIDLLSEKNYMSIRNGIEFMKHVTSVFPVVKAHIQLVYTTLEENLINEEREDIKLPSSALIGHLKARLKDALELDEFCTLTEEEAEQKRIREMELEEIKNYETACQNEQKQVALRKQLELNKSQRLQNDPPKSVASGSAGLNSKD
